Source: US20120100152A1
Changes are numbered by the printed parent chain. These are yes or no findings as the source states them, for the method shown. Some entries that bind do so weakly or less than the wild type.

Columns and labels:
[1] = biological target: T1, human CD52 (wildtype) (human); assay: multi-colour flow cytometry, human PBMC of a normal donor, FITC-conjugated antibody at 10 ug/ml (Example 30)
T1 sequence (chain, glycosylated (N-linked glycan), GPI-anchored): GQNDTSQTSSPS

[2] = biological target: T1, human CD52 (wildtype) (human); assay: flow cytometry, splenocytes of huCD52 transgenic mice, FITC-conjugated antibody
[3] = biological target: T1, human CD52 (wildtype) (human); assay: flow cytometry, FITC-labeled antibody (FIG. 85)
[4] = biological target: T1, human CD52 (wildtype) (human); assay: flow cytometry, CHO-CD52 cells, methods of Example 22 (antibody at 10 ug/ml, FITC goat anti-human secondary) (Example 28)
[5] = biological target: T1, human CD52 (wildtype) (human); assay: flow cytometry, FITC-labelled antibody on spleen lymphocytes of huCD52 transgenic mice (CD4 T cells, CD8 T cells, B cells)
[6] = biological target: T1, human CD52 (wildtype) (human); assay: flow cytometry, CHO-CD52 cells
[7] = biological target: T1, human CD52 (wildtype) (human); assay: flow cytometry, human PBMC subsets (FIG. 34)
[8] = biological target: T1, human CD52 (wildtype) (human); assay: multi-color flow cytometry, human PBMC subsets, FITC-conjugated antibody at 10 µg/ml
[9] = biological target: T1, human CD52 (wildtype) (human); assay: flow cytometry, CD4+ T cells from human PBMC and from huCD52 transgenic mouse spleen, 8-point 1:3 dilution from 100 ug/mL, FITC goat F(ab)2 anti-human Fc gamma secondary (Example 29)
[10] = biological target: T1, human CD52 (wildtype) (human); assay: flow cytometry, Raji cells, FITC-conjugated antibody at 10 µg/ml
[11] = biological target: T1, human CD52 (wildtype) (human); assay: flow cytometry, human CD4+ T cells and huCD52 transgenic mouse CD4+ T cells
[12] = biological target: T2, WT 2 wildtype human CD52 peptide (human); assay: Biacore T100 SPR, antibody immobilized, peptide injected at up to 500 nM
T2 sequence (peptide, by the resolver, chain 1 pos 1, Gly with N-terminal biotin, written G): GQNDTSQTSSPSAD

[13] = biological target: T1, human CD52 (wildtype) (human); assay: flow cytometry, splenocytes of huCD52-KI/KO transgenic mice
[14] = biological target: T1, human CD52 (wildtype) (human); assay: flow cytometry on splenocytes of huCD52-KI/KO transgenic mice, detection with a secondary antibody (FL2-H)
[15] = biological target: T1, human CD52 (wildtype) (human); assay: flow cytometry, CHO-CD52 cells, methods of Example 22 (antibody at 10 ug/ml, FITC goat anti-human secondary) (Example 24)
[16] = biological target: T1, human CD52 (wildtype) (human); assay: flow cytometry, FITC-labelled antibody on spleen lymphocytes of huCD52 transgenic mice (CD4 T cells, CD8 T cells, B cells); the sheet prints K11, while legend paragraph 240 and Example 57 name 2C3-SFD1/K12
[17] = biological target: T3, affinity purified CD52 from CHO-CD52 cells, mock-treated (glycosylated CD52) (human); assay: western blot of affinity purified CD52 +/- PNGase-F, antibody at 3 µg/ml
T3 sequence (chain, N-linked glycan present; GPI anchor): GQNDTSQTSSPS

[18] = biological target: T1, human CD52 (wildtype) (human); assay: ten-color flow cytometry, human PBMC lymphocyte subsets
[19] = biological target: T1, human CD52 (wildtype) (human); assay: FACS, CHO cells expressing wild type human CD52, PE-conjugated goat anti-human secondary (Example 4)
[20] = biological target: T1, human CD52 (wildtype) (human); assay: ten-colour flow cytometry, human PBMC, Alexa fluor 647-conjugated antibody, gated lymphocyte subsets (Example 7)
[21] = biological target: T1, human CD52 (wildtype) (human); assay: flow cytometry, B104 cells (FIG. 18)
[22] = biological target: T1, human CD52 (wildtype) (human); assay: flow cytometry, B104 cells
[23] = biological target: T1, human CD52 (wildtype) (human); assay: FACS, B104 B cell line (endogenous CD52), FITC goat anti-human secondary, Geo Mean divided by that of secondary only (Example 15)

Measured: binding

B1: humanized antibody 9D9-H18/K13 (antibody, V domains shown)
VH: EVQLLESGGGLVQPGGSLRLSCAASGFTFSDAWMDWVRQAPGKGLELVAEIRNKAKNHATYYAESVKGRFTISRDNSKNTLYLQMNSLRAEDTAVYYCTTLDSWGQGTTVTVSS
VL: DIVMTQTPLSLSVTPGQPASISCKSSQSLLDSDGKTYLNWLLQKPGQSPQRLIYLVSALDSGVPDRFSGSGSGTDFTLKISRVEAEDVGVYYCWQGTHFPWTFGQGTKLEIKR
binds: [1] | [2] | [3] | [4] | [5] | [6] | [7] | [8]

B2: humanized antibody 9D9-H16/K13 (antibody, V domains shown)
VH: B1 VH with A49S
VL: B1 VL
binds: [1] | [2] | [3] | [4] | [5] | [6] | [7] | [9] | [10] | [8]

B3: humanized antibody 2C3-SFD1/K12 (antibody, V domains shown)
VH: EVQLVESGGGLVQPGGSLRLSCAASGFTFNTYWMNWVRQAPGKGLEWVGQIRLKSNNYATHYAESVKGRFTISRDDSKNSLYLQMNSLKTEDTAVYYCTPVDFWGQGTTVTVSS
VL: DIVMTQTPLSLSVTPGQPASISCKSSQSLLYSNGKTYLNWLLQKPGQSPQRLIYLVSKLDSGVPDRFSGSGSGTDFTLKISRVEAEDVGVYYCVQGTHLHTFGQGTRLEIKR
not listed: [4] | [5] | [17] | [18] | [19] | [20] | [21] | [22] | [23]
binds: all other assays above

B4: chimeric 23E6 antibody (antibody, human IgG1, V domains shown)
VH: EVKLEESGGGLVQPGGSMKLSCVASGFTFNKYWMNWVRQSPDKGLECIAQIRLKSDNYATHYAESVKGRFTISRDDSKSSVYLQMNNLRAEDTGIYYCTPIDYWGQGTTLTVSS
VL: DIVLTQTPRTLSVTIGQPASISCKSSQSLLYSNGKTYLNWLLQRPGQSPKRLIYLVSKLDSGVPDRFAGSGSGTDFTLKISRVEAEDLGIYYCVQGTRFHTFGAGTKLELK
binds: [17] | [18] | [19] | [20]

B5: chimeric 4G7 antibody (antibody, human IgG1, V domains shown)
VH: EVKLEESGGGLVQPGGSMKLSCAVSGFTFSDAWMDWVRQSPEKGLEWVAEIRNKAKNHVKYYAESVKGRFTISRDDSKSSVYLQMNNLRTEDTGIYYCTSLDYWGQGTALTVSS
VL: DIVITQSTLTLSVTIGQPASISCKSSQSLLDSDGKTYLNWLLQRPGQSPKRLMYLVSNLGSGVPDRFTGSGSGTDFTLKVSRVEAEDLGVYYCWQGTHFPWTFGGGTKLEII
binds: [17] | [18] | [19] | [20]

B6: humanized antibody 4B10-H1/K1 (antibody, V domains shown)
VH: EVQLVESGGGLVQPGGSLRLSCAASGFTFSDYYMSWVRQAPGKGLEWVGFIRNKANGYTTEYSASVKGRFTISRDDSKNSLYLQMNSLKTEDTAVYYCARYIWFDYWGQGTTVTVSS
VL: DIVMTQTPLSLSVTPGQPASISCRSSQSLVHTNGNTYLHWYLQKPGQSPQLLIYMVSNRFSGVPDRFSGSGSGTDFTLKISRVEAEDVGVYYCSQSAHVPPLTFGQGTRLEIKR
binds: [21] | [22] | [23] | [6]

B7: humanized antibody 2C3-H17/K11 (antibody, human IgG1, V domains shown)
VH: B3 VH with L18M, G49A, L81V
VL: DIVMTQTPLSLSVTPGQPASISCKSSQSLLYSNGKTYLNWYLQKPGQSPQRLIYLVSKLDSGVPDRFSGSGSGTDFTLKISRVEAEDVGVYYCVQGTHLHTFGQGTRLEIK
binds: [15] | [6]

B8: humanized antibody 2C3-SFD1/K11 (antibody, human IgG1, V domains shown)
VH: B3 VH
VL: B7 VL
binds: [15] | [6]

B9: humanized antibody 2C3-SFD1/K1 (antibody, human IgG1, V domains shown)
VH: B3 VH
VL: B7 VL with R51L
binds: [15] | [6]

B10: humanized 9D9 clone: heavy chain variant 9D9-VH17 paired with light chain variant 9D9-VK13 (antibody, human IgG1, V domains shown)
VH: B1 VH with V48T, A49S
VL: DIVMTQTPLSLSVTPGQPASISCKSSQSLLDSDGKTYLNWLLQKPGQSPQRLIYLVSALDSGVPDRFSGSGSGTDFTLKISRVEAEDVGVYYCWQGTHFPWTFGQGTKLEIK
binds: [4] | [6]

B11: humanized 9D9 clone: heavy chain variant 9D9-VH15 paired with light chain variant 9D9-VK13 (antibody, human IgG1, V domains shown)
VH: B1 VH with V48T
VL: B10 VL
binds: [4] | [6]

B12: humanized antibody 9D9-H11/K13 (antibody, human IgG1, V domains shown)
VH: B1 VH with V48T, N79S, L81V
VL: B10 VL
binds: [4] | [6]

B13: humanized antibody 9D9-H11/K12 (antibody, human IgG1, V domains shown)
VH: B1 VH with V48T, N79S, L81V
VL: B10 VL with Q50K
binds: [4] | [6] | [9]

B14: humanized antibody 9D9-H10/K13 (antibody, human IgG1, V domains shown)
VH: B1 VH with L47W, A49S
VL: B10 VL
binds: [4] | [6]

B15: humanized antibody 12G6-SFD1/K12 (antibody, V domains shown)
VH: B3 VH with T28P, N30S, T31N, V101I, F103Y
VL: B3 VL with L41V, T97S, L99F, R107K
binds: [12]

B16: humanized 9D9 clone: heavy chain variant 9D9-VH15 paired with light chain variant 9D9-VK12 (antibody, human IgG1, V domains shown)
VH: B1 VH with V48T
VL: B10 VL with Q50K
binds: [6]

B17: humanized 9D9 clone: heavy chain variant 9D9-VH16 paired with light chain variant 9D9-VK12 (antibody, human IgG1, V domains shown)
VH: B1 VH with A49S
VL: B10 VL with Q50K
binds: [6]

B18: humanized 9D9 clone: heavy chain variant 9D9-VH18 paired with light chain variant 9D9-VK12 (antibody, human IgG1, V domains shown)
VH: B1 VH
VL: B10 VL with Q50K
binds: [6]
